The other results are listed elsewhere or left out. Shown are side measurements of this screen, not its main read-out; they come without a call. The list favours compounds with an active or inconclusive main result. Potencies come from curve fits of mixed quality, noted in brackets.
Assay: qHTS Assay for Lipid Storage Modulators in Drosophila S3 Cells;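 as to cell number change: cells counted by Cell Tracker Red CMTPX staining in the red channel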
Conditions: BODIPY lipid droplet fluorescence, 18-24 h; for cell number change: measured here: cell count max response, cells fed with added oleic acid
Procedure, shortened: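 Drosophila S3 cells loaded with oleic acid (400 uM, as added) and compounds at several concentrations; lipid droplets imaged by 488-nm laser-scanning cytometry, 500–530 nm intensity and object ratio to cell channel. Percent activity normalized to 20 uM Triacsin C.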

[1] = measured here: cell number channel AC50, cells fed with added oleic acid
[2] = measured here: lipid fluorescence (Fed channel) AC50, cells fed with added oleic acid

Row | Compound | cell number change | AC50 [1] | AC50 [2]
1 | Clc1ccc(OCCSc2ncccn2)c(Br)c1 | 43.8% | 20.6 µM [rising, single point] | 29.1 µM [rising, single point]
2 | CCOC(=O)C1(Cc2ccc(OC)cc2)CCN(C(=O)c2ccoc2C)CC1 | 31.2% | 18.4 µM [rising, single point] | 
3 | COc1ccc(C)cc1NC(=O)C(Sc1ccccc1)c1ccccc1 (stereo not given) |  |  | 6.51 µM [rising, single point]
4 | Cc1ccc2oc(=O)c3cnn(CC(=O)N(CCCN4CCOCC4)Cc4ccco4)c3c2c1 | 5.56% |  | 0.103 µM [rising, partial curve, poor fit]
5 | O=C(O)Cn1cnc2scc(-c3cccs3)c2c1=O | 1.1% |  | 
6 | CCOc1ccc(C2=C(C=Nc3c(C)n(C)n(-c4ccccc4)c3=O)C(c3ccc(F)cc3)c3ccccc3O2)cc1 (stereo not given) | 5.27% |  | 18.4 µM [rising, single point]
7 | Cc1cc(C)n(-c2nc(NCCC(C)C)c3c4c(sc3n2)COC(C)(C)C4)n1 | 23.4% | 4.61 µM [rising, full curve, poor fit] | 6.51 µM [rising, single point]
8 | Cc1ccc2nc(SCc3cccc([N+](=O)[O-])c3)nc(C)c2c1 | 53.3% | 29.1 µM [rising, single point] | 29.1 µM [rising, single point]
9 | Cn1c(-c2ccc(F)cc2)cnc1NCc1ccccc1F | 6.31% |  | 0.082 µM [falling, full curve, poor fit]
10 | CCCNC(=O)c1ccc(N2CCC3(CC2)CC(c2ccccc2)=NO3)c(NC(=O)c2ccc(Br)cc2)c1 |  | 1.84 µM [rising, partial curve] | 3.26 µM [rising, single point]
11 | CS(=O)(=O)c1sc2nc(-c3ccccc3)cc(-c3ccccc3)c2c1N | 56.6% | 3.26 µM [rising, partial curve] | 1.84 µM [rising, partial curve]
12 | COc1cc2c(cc1OC)C(c1cccc([N+](=O)[O-])c1)N(C(=O)CCC(=O)O)CC2 (stereo not given) | 54.1% | 25.9 µM [rising, partial curve] | 
13 | O=c1[nH]c(=O)n(C2CCCO2)cc1Br (stereo not given) | -5.14% |  | 0.0058 µM [falling, full curve, poor fit]
14 | CCC(C(=O)NC1CCCCCC1)n1nc(C)c2c(C)n(-c3ccccc3)nc2c1=O (stereo not given) | 1.18% | 6.51 µM [rising, single point] | 6.51 µM [rising, single point]
15 | O=C(O)c1ccccc1SCC(=O)N1c2ccccc2Sc2ccccc21 | -8.8% |  | 8.2 µM [falling, partial curve]
16 | COC(=O)C1=C(NC(=O)c2ccc(Br)cc2)CCS1 | -14.8% |  | 1.64 µM [falling, single point]
17 | O=C(CN1C(=O)c2ccccc2S1(=O)=O)c1ccc(F)c(F)c1 | 1.69% |  | 
18 | Cn1nnnc1SCC(=O)Nc1c(Cl)cccc1Cl | -3.03% | 0.164 µM [falling, full curve, poor fit] | 
19 | CC1Sc2ccc(S(=O)(=O)CCC(=O)N3CCN(c4cccc(Cl)c4)CC3)cc2NC1=O (stereo not given) | -54.6% | 29.1 µM [falling, single point] | 29.1 µM [falling, single point]

Row | Compound | cell number change | AC50 [1] | AC50 [2]
20 | O=S(=O)(NC1CCCC1)c1cc(F)ccc1F | -4.32% |  | 
21 | CCOC(=O)CN(C(=O)CNC(=O)c1ccco1)C(C(=O)NC1CCCCC1)c1cccc(OC)c1 (stereo not given) | 0.5% |  | 4.11 µM [falling, partial curve, poor fit]
22 | Cc1ccc(S(=O)(=O)N2CCCCC2)cc1NC(=O)CCN1C(=O)C2CC=CCC2C1=O (stereo not given) | 13% |  | 2.06 µM [rising, partial curve, poor fit]
23 | Cc1ccc(CNC(=O)Cn2nnc(C(=O)Nc3cccc(C)c3C)c2N)cc1 |  |  | 5.8 µM [rising, single point]
24 | COc1ccc(C)cc1NC(=O)C(CCS(C)(=O)=O)NC(C)=O (stereo not given) | -42.1% | 25.9 µM [falling, single point] | 25.9 µM [falling, partial curve, poor fit]
25 | CC(=O)c1ccc(N(CC(=O)NCCc2ccccc2)C(=O)c2csnn2)cc1 | 23.8% |  | 1.16 µM [falling, single point]
26 | C=C1SC(=Nc2ccccc2Cl)N(C(=O)c2sc3ccccc3c2Cl)C1(C)C | 43.3% | 16.4 µM [rising, partial curve, poor fit] | 29.1 µM [rising, single point]
27 | COc1ccc(NCc2nnc(SCC(=O)N3CCCc4ccccc43)o2)cc1 | 41.2% | 5.17 µM [rising, partial curve, poor fit] | 
28 | CN(CCO)CCOCCOc1cccc2ccccc12 | -27.7% |  | 
29 | O=C(CCNC(=O)c1ccccc1Cl)Nc1nccs1 | -9.26% | 5.17 µM [falling, single point] | 
30 | COc1cc(C)c(CNc2cccc(C)c2)cc1C | 7.55% | 0.731 µM [falling, single point] | 0.411 µM [falling, partial curve, poor fit]
31 | Cc1ccc(S(=O)(=O)N2CCN(c3ccccc3)CC2)cc1C(=O)NC1CCCCC1 | 9.19% |  | 3.26 µM [falling, partial curve]
32 | Cn1c(N)c(C(=O)COC(=O)Cn2cc(C(F)(F)F)ccc2=O)c(=O)n(C)c1=O | 8.66% |  | 
33 | COC(=O)[C@@H]1C[C@H]2CC[C@H](O)C[C@H]2N1Cc1ccc(Cl)cc1 | 24.5% |  | 29.1 µM [rising, partial curve]
34 | CC(C)(C)C1CCC(OC(=O)CN2CCOCC2)CC1 (stereo not given) | -0.283% |  | 1.3 µM [rising, full curve]
35 | COc1ccc(CNC(=O)Cn2nc([N+](=O)[O-])cc2C)cc1 | -16.1% |  | 6.51 µM [rising, partial curve, poor fit]
36 | CCN1CCCC1CNC(=O)CCc1nc(-c2ccc(C)cc2)no1 (stereo not given) | -12.7% | 0.00517 µM [falling, full curve, poor fit] | 
37 | S=c1[nH]nc(C2CCCCC2)n1/N=C/c1ccccc1 | -29.2% |  | 
38 | COC(=O)/C(=C1/Oc2cc(C)oc(=O)c2S1)C(F)(F)F | -34.6% | 5.17 µM [falling, partial curve] | 5.8 µM [falling, partial curve]

Sorted by SMILES length (low to high): 3 of the compounds above
Row | Compound | cell number change | AC50 [1] | AC50 [2]
18 | Cn1nnnc1SCC(=O)Nc1c(Cl)cccc1Cl | -3.03% | 0.164 µM [falling, full curve, poor fit] | 
17 | O=C(CN1C(=O)c2ccccc2S1(=O)=O)c1ccc(F)c(F)c1 | 1.69% |  | 
26 | C=C1SC(=Nc2ccccc2Cl)N(C(=O)c2sc3ccccc3c2Cl)C1(C)C | 43.3% | 16.4 µM [rising, partial curve, poor fit] | 29.1 µM [rising, single point]

Next results.

Row | Compound | cell number change | AC50 [1] | AC50 [2]
39 | O=c1c(Cc2ccc(Cl)cc2Cl)c(O)ccn1CCCN1CCOCC1 | -23.5% |  | 35.5 µM [falling, single point]
40 | CC(C)CC1(C(=O)O)NC(c2ccccc2O)C2C(=O)N(C(C)C)C(=O)C21 (stereo not given) | 9.39% |  | 2.06 µM [falling, partial curve]
41 | O=C(NC1CCCC1)C(=O)N(Cc1cccnc1)C(C(=O)NCc1ccco1)c1ccccc1F (stereo not given) | 19% |  | 9.2 µM [rising, partial curve, poor fit]
42 | Cc1c(C(=O)NCc2cccnc2)oc2ccc(S(=O)(=O)N3CC(C)CC(C)C3)cc12 (stereo not given) | 63.1% | 2.91 µM [rising, partial curve] | 0.731 µM [rising, full curve]
43 | CCCn1c(N2CCN(C(=O)Nc3ccc(Cl)cc3)CC2)nc2ccccc21 | -25.5% |  | 29.1 µM [falling, single point]
44 | CC(C1CC1)N(C(=O)NC1CCS(=O)(=O)C1)c1ccccc1 (stereo not given) | 6.71% |  | 3.66 µM [falling, full curve]
45 | COC(=O)c1cc(S(=O)(=O)N2CCCCCC2)cn1C | -5.61% |  | 2.31 µM [falling, full curve]
46 | COc1ccc(-c2cn(CCC(=O)NCc3ccc(C)cc3)c(-c3ccncc3)n2)cc1 | 5.69% |  | 29.1 µM [falling, single point]
47 | O=C(COc1ccc(-c2ccccc2)cc1)N1CCN(S(=O)(=O)Cc2ccccc2)CC1 | 6.34% |  | 0.461 µM [rising, single point]
48 | Cc1cc(NC(=O)CSc2nc3ccccc3c(=O)n2-c2ccccc2)no1 | 18.7% |  | 4.61 µM [rising, partial curve, poor fit]
49 | COC(=O)c1c(C)[nH]c(-c2csc(N)n2)c1C |  | 0.58 µM [rising, partial curve] | 4.61 µM [rising, full curve, poor fit]
50 | CN(C)S(=O)(=O)c1cccc(NC(=O)c2cc(-c3cccs3)nc3ccccc23)c1 | 20.1% |  | 6.51 µM [rising, partial curve]
51 | CCOC(=O)C1=C(C)NC(=O)NC1c1ccc(OC)c(Cl)c1 (stereo not given) | -0.587% |  | 
52 | CCOc1ccccc1N1CCN(C(=S)NCc2ccccc2)CC1 |  | 0.0731 µM [rising, full curve, poor fit] | 
53 | Cc1cc(OCC(=O)N2CCOCC2)ccc1NC(=O)C1CCCCC1 | 9.49% | 2.06 µM [rising, partial curve] | 
54 | Cn1c(SCc2ccc(C(C)(C)C)cc2)nnc1C1COc2ccccc2O1 (stereo not given) | -32.9% | 29.1 µM [falling, single point] | 16.4 µM [falling, single point]
55 | O=C(CSc1ncccn1)N/N=C/c1ccc(OC2CSC2)cc1 | 39.1% | 25.9 µM [rising, single point] | 
56 | CN(C)CCCNc1ncnc2c1cnn2Cc1ccccc1Cl | 8.33% |  | 
57 | Cc1nc(NC2=NCN(Cc3cccnc3)CN2)nc2c(C)cccc12 | -2.23% |  | 20.6 µM [falling, partial curve]

— PubChem BioAssay AID2685 (National Center for Advancing Translational Sciences (NCATS), 2010)
